Experimental data: article PMC7847540
Results are given in words; binding and its absence hold for the method and conditions named. In cells and extracts the contact can be indirect. A yes stands for co-enrichment or nearness to the bait. Other partners may have been found. No binding means not detected with the bait.

Sequences of proteins named here, by UniProt entry; tags and fusion partners are left off. A change or cut given only in a name is not applied to a line headed by its entry.
UniProt P9WPB9, whole entry, stated change not applied: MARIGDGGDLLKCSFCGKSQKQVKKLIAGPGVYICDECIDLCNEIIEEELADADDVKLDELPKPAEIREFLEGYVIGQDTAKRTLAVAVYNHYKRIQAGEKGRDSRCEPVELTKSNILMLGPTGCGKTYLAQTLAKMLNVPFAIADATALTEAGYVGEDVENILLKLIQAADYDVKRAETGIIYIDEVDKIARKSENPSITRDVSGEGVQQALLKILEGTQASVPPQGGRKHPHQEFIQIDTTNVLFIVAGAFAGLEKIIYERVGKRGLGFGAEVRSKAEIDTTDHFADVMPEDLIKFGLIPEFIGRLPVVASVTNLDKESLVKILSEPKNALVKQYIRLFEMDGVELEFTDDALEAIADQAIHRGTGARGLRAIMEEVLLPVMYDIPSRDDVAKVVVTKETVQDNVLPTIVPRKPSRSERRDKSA

Molecular target: N-terminally 6×His-tagged ClpX (His6ClpX) from M. tuberculosis, overproduced in M. smegmatis (M. tuberculosis) (UniProt P9WPB9)
Experiment: affinity purification with mass spectrometry

In the case of “FtsZ, M. smegmatis (from UniProt A0R012 1-385)”, the binding is reported as “no binding”.

In the case of “single-stranded-DNA binding protein (SSB), M. smegmatis (from UniProt Q9AFI5 1-165)”, the binding is reported as “binds”.
